These are yes or no findings as the source states them, for the method shown. For part of these data: In cells and extracts the contact can be indirect. Some entries that bind do so weakly or less than the wild type. For part of these data: Where a sequence is shown, tags or fusion partners need not be part of it.
Assays:
[1] = target: T1, GST-Numb fusion protein (from pGEX-P-1-Numb, on glutathione-sepharose beads) (human) (UniProt P49757); test: GST pull-down of in vitro translated Siah-1, autoradiography
T1 sequence (looked up): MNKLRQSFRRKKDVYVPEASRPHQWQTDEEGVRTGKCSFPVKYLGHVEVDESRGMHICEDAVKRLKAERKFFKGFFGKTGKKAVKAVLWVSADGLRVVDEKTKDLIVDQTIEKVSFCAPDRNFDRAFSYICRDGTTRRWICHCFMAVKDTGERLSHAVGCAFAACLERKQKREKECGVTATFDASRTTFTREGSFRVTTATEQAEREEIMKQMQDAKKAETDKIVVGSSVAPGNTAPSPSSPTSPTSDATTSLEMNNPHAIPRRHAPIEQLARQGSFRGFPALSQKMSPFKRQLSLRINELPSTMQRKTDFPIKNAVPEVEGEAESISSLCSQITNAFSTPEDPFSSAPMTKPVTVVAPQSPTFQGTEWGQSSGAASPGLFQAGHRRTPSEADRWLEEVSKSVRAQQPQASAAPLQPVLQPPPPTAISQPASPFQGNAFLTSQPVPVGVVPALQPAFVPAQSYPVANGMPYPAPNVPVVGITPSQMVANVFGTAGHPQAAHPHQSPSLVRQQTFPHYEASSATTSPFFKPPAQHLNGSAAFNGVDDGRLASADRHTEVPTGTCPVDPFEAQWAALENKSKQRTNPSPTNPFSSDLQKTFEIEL

[2] = target: T1, GST-Numb fusion protein (from pGEX-P-1-Numb, on glutathione-sepharose beads) (human); test: GST pull-down on glutathione-sepharose beads, SDS-PAGE and autoradiography
[3] = target: T2, endogenous Numb of U937 cells and Jurkat cells (UniProt P49757); test: co-immunoprecipitation with anti-Numb antibody from DTBP-crosslinked U937 and Jurkat lysates, anti-Siah-1 blot
T2 sequence (looked up): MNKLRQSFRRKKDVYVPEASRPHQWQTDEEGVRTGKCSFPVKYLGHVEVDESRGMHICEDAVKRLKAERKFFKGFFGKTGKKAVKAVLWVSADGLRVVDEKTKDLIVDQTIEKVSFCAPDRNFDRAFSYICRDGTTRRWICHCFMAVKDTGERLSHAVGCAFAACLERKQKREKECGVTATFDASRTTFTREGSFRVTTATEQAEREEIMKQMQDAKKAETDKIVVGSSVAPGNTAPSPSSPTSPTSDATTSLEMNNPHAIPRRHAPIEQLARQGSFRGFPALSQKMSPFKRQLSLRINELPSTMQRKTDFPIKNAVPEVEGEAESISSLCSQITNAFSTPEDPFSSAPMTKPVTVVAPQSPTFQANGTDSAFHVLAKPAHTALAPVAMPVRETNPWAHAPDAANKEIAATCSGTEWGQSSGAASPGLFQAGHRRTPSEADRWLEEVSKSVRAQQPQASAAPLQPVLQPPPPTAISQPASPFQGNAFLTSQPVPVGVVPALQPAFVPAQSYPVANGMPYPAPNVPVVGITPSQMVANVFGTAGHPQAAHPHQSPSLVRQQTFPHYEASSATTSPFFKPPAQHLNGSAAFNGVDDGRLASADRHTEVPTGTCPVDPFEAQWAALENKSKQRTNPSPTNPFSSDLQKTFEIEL

[4] = target: T3, B42-Numb (yeast two-hybrid target) (human) (UniProt P49757); test: yeast two-hybrid, growth and β-galactosidase activity
T3 sequence (looked up): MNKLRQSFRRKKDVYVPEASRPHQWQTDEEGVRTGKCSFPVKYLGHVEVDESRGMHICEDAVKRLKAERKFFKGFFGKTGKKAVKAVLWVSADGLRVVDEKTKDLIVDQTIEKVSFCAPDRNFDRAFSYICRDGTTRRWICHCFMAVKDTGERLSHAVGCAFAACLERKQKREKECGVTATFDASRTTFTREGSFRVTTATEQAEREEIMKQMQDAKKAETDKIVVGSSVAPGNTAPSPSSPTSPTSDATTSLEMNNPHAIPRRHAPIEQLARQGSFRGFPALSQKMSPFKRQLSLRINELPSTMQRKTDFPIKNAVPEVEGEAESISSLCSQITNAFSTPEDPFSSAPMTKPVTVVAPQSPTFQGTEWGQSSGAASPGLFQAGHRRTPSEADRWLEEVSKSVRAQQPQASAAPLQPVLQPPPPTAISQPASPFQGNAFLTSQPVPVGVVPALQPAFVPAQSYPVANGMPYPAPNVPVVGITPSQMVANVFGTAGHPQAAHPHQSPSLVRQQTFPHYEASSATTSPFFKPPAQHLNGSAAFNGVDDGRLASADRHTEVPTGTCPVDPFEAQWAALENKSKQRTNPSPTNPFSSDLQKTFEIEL

[5] = target: T4, B42-Siah-1 (yeast two-hybrid target, positive control) (human), Q8IUQ4; test: yeast two-hybrid, growth and β-galactosidase activity (positive control); details: remark: other sources report otherwise
T4 chain: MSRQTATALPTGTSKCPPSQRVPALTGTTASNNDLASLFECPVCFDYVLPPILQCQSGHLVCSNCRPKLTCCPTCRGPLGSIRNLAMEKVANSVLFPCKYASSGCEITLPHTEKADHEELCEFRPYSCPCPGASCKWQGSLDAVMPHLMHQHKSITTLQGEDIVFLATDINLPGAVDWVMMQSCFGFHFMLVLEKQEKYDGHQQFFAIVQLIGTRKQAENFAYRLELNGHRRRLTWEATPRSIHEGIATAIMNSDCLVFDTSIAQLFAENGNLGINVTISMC

[6] = target: T1, GST-Numb fusion protein (from pGEX-P-1-Numb, on glutathione-sepharose beads) (human); test: GST pull-down of radiolabelled in vitro translated Siah-1 fragments

B1: Siah-1 protein (human), untagged; obtained by in vitro translation (35S-labelled) or expressed from plasmid pBKRSV in 293T cells (enzyme, UniProt Q8IUQ4 1-282, looked up)
chain: MSRQTATALPTGTSKCPPSQRVPALTGTTASNNDLASLFECPVCFDYVLPPILQCQSGHLVCSNCRPKLTCCPTCRGPLGSIRNLAMEKVANSVLFPCKYASSGCEITLPHTEKADHEELCEFRPYSCPCPGASCKWQGSLDAVMPHLMHQHKSITTLQGEDIVFLATDINLPGAVDWVMMQSCFGFHFMLVLEKQEKYDGHQQFFAIVQLIGTRKQAENFAYRLELNGHRRRLTWEATPRSIHEGIATAIMNSDCLVFDTSIAQLFAENGNLGINVTISMC
modifications: 35S-methionine label in the in vitro translation product
B1 was tested, and the binding [1] was “binds” and the binding [2] was “binds”.

B2: endogenous Siah-1 of U937 cells and Jurkat cells (32 kDa monomeric form) (enzyme, UniProt Q8IUQ4 1-282, looked up)
chain: MSRQTATALPTGTSKCPPSQRVPALTGTTASNNDLASLFECPVCFDYVLPPILQCQSGHLVCSNCRPKLTCCPTCRGPLGSIRNLAMEKVANSVLFPCKYASSGCEITLPHTEKADHEELCEFRPYSCPCPGASCKWQGSLDAVMPHLMHQHKSITTLQGEDIVFLATDINLPGAVDWVMMQSCFGFHFMLVLEKQEKYDGHQQFFAIVQLIGTRKQAENFAYRLELNGHRRRLTWEATPRSIHEGIATAIMNSDCLVFDTSIAQLFAENGNLGINVTISMC
For B2, the binding [3] was “binds”.

B3: LexA-Siah-1 (yeast two-hybrid bait) (protein, human, UniProt Q8IUQ4 1-282, looked up, not shown: large carriers)
chain: MSRQTATALPTGTSKCPPSQRVPALTGTTASNNDLASLFECPVCFDYVLPPILQCQSGHLVCSNCRPKLTCCPTCRGPLGSIRNLAMEKVANSVLFPCKYASSGCEITLPHTEKADHEELCEFRPYSCPCPGASCKWQGSLDAVMPHLMHQHKSITTLQGEDIVFLATDINLPGAVDWVMMQSCFGFHFMLVLEKQEKYDGHQQFFAIVQLIGTRKQAENFAYRLELNGHRRRLTWEATPRSIHEGIATAIMNSDCLVFDTSIAQLFAENGNLGINVTISMC
B3 was tested, and the binding [4] was “binds”.

B4: LexA-Siah-1 (yeast two-hybrid bait), Q8IUQ4 1-282 (protein, human, UniProt Q8IUQ4 1-282, looked up, not shown: large carriers)
chain: MSRQTATALPTGTSKCPPSQRVPALTGTTASNNDLASLFECPVCFDYVLPPILQCQSGHLVCSNCRPKLTCCPTCRGPLGSIRNLAMEKVANSVLFPCKYASSGCEITLPHTEKADHEELCEFRPYSCPCPGASCKWQGSLDAVMPHLMHQHKSITTLQGEDIVFLATDINLPGAVDWVMMQSCFGFHFMLVLEKQEKYDGHQQFFAIVQLIGTRKQAENFAYRLELNGHRRRLTWEATPRSIHEGIATAIMNSDCLVFDTSIAQLFAENGNLGINVTISMC
For B4, the binding [5] was “binds”.

In the case of MMQSCFGFHFMLVLEKQEKYDGHQQFFAIVQL (peptide, UniProt Q8IUQ4 180-211, looked up, radiolabelled by in vitro translation) [Siah-1 fragment delta-10, amino acids 180-211 (radiolabelled, in vitro translated)], the binding [6] is reported as “binds”.
